For this test, the target named is Overexpressed 3XMYC-UPF3B lacking the EJC-binding domain (human) (UniProt Q9BZI7). In words: co-IP; anti-myc IP from HEK-293 lysates overexpressing 3Xmyc-tagged UPF3B constructs; immunoblot. Background: Immunoblotting shows a protein as a band on a membrane.

The chains behind the UniProt entries cited, without tags or fusion partners. Where a name states a change or a piece, a line headed by the entry shows the natural chain unless it says otherwise.
UniProt Q9BZI7: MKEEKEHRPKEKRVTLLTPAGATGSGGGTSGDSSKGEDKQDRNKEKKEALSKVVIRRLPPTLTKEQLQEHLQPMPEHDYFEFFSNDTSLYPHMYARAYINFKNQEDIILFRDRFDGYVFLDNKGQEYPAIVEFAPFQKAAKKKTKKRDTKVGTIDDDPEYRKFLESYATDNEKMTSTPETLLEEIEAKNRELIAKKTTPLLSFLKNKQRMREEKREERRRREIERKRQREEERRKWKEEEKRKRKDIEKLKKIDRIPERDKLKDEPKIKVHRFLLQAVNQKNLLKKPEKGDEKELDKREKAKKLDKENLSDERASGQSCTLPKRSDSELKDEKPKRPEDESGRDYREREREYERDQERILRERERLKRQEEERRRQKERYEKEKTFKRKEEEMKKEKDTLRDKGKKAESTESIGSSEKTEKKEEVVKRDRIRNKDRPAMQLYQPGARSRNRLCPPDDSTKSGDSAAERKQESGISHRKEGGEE
UniProt Q9Y2F5: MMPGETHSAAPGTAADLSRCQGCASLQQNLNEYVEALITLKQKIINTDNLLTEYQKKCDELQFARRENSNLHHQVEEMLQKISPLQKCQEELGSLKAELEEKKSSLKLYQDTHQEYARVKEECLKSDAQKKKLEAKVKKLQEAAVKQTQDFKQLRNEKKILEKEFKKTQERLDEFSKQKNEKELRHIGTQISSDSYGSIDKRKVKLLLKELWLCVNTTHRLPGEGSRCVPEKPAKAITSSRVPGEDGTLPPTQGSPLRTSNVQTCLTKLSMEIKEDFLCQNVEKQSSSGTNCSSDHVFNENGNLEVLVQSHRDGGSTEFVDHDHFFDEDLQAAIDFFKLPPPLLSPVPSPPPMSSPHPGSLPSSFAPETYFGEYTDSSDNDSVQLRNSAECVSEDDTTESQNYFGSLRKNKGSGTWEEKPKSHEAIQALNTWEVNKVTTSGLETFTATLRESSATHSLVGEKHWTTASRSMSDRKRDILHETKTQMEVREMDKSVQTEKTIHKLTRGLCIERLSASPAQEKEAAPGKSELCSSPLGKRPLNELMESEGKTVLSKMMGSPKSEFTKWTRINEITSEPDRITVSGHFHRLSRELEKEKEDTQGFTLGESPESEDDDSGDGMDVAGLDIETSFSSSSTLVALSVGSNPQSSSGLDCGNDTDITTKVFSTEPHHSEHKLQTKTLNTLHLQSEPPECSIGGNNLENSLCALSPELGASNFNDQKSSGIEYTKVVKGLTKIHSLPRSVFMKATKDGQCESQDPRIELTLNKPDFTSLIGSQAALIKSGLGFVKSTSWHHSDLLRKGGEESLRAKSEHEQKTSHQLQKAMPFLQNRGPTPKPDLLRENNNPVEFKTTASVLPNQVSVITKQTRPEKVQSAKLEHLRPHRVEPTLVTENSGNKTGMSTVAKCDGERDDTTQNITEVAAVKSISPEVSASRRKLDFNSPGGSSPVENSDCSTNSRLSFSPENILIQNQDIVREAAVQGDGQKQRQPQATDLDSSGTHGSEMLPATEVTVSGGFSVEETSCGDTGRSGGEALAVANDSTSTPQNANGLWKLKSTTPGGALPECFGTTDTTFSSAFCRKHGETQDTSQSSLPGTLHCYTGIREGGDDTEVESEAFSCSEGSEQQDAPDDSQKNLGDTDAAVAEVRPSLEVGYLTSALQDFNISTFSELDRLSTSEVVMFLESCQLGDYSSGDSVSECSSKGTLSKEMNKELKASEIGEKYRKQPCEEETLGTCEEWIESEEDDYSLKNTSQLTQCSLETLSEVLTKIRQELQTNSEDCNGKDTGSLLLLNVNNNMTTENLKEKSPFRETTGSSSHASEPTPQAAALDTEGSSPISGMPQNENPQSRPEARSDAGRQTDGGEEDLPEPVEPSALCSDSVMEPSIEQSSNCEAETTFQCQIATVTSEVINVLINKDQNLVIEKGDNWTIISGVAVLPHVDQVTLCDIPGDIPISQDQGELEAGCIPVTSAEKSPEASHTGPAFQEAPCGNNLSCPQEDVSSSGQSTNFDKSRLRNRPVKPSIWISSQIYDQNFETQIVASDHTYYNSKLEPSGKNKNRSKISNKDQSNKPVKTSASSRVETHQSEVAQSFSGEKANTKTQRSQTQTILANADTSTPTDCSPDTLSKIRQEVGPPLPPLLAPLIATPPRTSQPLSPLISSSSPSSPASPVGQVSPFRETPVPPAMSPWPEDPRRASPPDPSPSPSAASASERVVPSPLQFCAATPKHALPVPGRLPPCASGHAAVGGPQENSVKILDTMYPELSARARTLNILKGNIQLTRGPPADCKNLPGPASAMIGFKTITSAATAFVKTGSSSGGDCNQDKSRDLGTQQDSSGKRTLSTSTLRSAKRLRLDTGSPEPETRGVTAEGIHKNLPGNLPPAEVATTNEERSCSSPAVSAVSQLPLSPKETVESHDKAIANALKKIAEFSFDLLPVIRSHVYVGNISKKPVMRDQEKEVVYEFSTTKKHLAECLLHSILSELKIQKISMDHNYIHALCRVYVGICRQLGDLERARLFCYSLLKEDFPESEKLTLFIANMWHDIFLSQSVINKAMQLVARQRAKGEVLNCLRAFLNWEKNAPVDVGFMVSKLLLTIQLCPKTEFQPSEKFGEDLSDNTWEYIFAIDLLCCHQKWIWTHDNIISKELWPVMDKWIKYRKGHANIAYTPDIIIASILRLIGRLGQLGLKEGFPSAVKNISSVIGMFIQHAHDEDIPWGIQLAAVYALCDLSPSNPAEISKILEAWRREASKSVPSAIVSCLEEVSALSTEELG

No constants are given. Whether binding was seen depends on the method and setting. Binding seen in cells or lysates may run through a third protein.

Take “ICE1 (interactor of little elongation complex ELL subunit 1) (from UniProt Q9Y2F5 1-2266)”: the binding result is reported as “no binding”.

Values taken from article PMC5896957.
